# Results reported in PMC9481933.
# Chains of the proteins cited; added tags and fusions are not shown.
# UniProt P08238: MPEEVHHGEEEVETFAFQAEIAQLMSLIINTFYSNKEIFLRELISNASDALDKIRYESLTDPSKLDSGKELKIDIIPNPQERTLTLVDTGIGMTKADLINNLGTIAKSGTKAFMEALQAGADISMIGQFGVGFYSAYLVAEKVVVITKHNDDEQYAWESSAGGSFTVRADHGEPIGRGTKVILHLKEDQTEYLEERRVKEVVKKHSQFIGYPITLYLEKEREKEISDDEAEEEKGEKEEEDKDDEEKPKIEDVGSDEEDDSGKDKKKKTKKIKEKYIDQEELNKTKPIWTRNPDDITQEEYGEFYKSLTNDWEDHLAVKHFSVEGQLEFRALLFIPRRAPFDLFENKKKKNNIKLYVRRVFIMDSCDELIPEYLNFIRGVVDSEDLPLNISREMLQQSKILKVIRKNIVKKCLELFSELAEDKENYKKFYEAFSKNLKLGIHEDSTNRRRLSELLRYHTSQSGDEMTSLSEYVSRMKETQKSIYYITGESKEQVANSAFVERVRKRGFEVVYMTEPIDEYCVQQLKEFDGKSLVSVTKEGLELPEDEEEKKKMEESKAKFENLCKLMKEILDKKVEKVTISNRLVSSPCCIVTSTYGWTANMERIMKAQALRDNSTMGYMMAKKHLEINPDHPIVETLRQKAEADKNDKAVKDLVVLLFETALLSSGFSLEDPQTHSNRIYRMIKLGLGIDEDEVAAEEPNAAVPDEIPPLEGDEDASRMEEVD
# UniProt P63208: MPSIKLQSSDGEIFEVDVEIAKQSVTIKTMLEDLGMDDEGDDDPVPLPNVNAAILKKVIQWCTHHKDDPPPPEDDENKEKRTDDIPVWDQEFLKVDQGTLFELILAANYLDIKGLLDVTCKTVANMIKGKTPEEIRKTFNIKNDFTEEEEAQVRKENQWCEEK
# UniProt Q13263: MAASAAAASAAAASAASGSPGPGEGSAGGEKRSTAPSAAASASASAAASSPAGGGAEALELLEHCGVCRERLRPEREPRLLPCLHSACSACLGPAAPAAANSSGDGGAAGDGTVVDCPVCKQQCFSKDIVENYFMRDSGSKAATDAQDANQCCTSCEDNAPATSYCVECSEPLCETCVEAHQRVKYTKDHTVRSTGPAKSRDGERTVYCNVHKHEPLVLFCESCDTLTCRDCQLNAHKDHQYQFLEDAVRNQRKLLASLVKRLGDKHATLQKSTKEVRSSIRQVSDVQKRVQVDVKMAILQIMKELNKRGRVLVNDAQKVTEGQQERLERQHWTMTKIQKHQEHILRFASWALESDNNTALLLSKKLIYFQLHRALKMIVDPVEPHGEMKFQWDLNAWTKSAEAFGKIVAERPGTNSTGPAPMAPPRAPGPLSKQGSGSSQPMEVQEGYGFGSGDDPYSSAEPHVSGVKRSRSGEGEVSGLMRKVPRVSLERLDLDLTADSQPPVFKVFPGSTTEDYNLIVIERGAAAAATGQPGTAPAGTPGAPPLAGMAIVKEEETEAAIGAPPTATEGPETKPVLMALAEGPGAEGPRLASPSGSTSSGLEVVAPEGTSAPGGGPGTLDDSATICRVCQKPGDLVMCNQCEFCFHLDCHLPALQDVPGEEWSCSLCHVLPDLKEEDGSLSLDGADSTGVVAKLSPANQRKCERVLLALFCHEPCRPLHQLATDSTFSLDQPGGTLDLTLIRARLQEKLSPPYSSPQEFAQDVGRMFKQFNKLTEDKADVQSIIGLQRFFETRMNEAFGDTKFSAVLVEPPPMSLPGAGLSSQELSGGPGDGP
# Changes are numbered by the printed parent chain. No constants are given. Whether binding was seen depends on the method and setting. Binding seen in cells or lysates may run through a third protein. Some results given as binding are weak or reduced against the parent protein; the word gives no strength. Tags and fused reporters may be left off the sequences shown.
# Experiments:
# [1] = molecular target: T1, HA-FLAG-tagged Cyclin-F V335M (UniProt P41002); assay: co-IP; CCNF KO SH-SY5Y cells re-expressing HA-FLAG-CCNF WT, V335M or D628V or mock; HA-agarose, SDS-PAGE and immunoblotting
# T1 sequence: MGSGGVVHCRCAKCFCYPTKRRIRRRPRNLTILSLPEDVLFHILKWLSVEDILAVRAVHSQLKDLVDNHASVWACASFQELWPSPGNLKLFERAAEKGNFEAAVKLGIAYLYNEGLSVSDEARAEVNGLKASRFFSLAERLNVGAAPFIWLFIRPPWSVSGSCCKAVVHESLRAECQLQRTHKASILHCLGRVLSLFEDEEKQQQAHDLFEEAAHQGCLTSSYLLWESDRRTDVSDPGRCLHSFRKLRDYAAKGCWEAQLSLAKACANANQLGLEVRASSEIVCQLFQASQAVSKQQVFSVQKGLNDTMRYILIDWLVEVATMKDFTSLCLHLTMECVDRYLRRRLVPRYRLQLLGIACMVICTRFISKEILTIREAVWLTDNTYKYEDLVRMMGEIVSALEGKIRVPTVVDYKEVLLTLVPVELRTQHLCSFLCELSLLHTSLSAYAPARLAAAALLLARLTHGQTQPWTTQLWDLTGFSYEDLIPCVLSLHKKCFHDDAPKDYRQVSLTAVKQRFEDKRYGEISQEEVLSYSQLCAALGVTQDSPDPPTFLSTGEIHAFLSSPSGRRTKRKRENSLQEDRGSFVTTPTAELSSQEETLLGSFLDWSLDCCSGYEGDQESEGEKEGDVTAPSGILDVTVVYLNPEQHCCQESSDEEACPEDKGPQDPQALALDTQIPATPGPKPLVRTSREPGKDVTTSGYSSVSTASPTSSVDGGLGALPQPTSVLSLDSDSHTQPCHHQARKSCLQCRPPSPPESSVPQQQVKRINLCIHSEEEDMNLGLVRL
# [2] = molecular target: T2, HA-FLAG-tagged Cyclin-F D628V (UniProt P41002); assay: as above
# T2 sequence: T1 sequence with M335V, D628V
# [3] = molecular target: T3, HA-FLAG-tagged Cyclin-F (wild type), in SH-SY5Y cells (UniProt P41002); assay: as above
# T3 sequence: T1 sequence with M335V
# [4] = molecular target: T3, HA-FLAG-tagged Cyclin-F (wild type), in SH-SY5Y cells; assay: co-IP; lysates of parental (mock), HA-FLAG-FBXO28 or HA-FLAG-CCNF overexpressing SH-SY5Y cells; HA or Flag immunoprecipitation overnight at 4 C, SDS-PAGE and immunoblotting of endogenous partners
# HA-FLAG-FBXO28 = molecular target: T4, HA-FLAG-FBXO28 (UniProt Q9NVF7); assay: as above
# T4 sequence: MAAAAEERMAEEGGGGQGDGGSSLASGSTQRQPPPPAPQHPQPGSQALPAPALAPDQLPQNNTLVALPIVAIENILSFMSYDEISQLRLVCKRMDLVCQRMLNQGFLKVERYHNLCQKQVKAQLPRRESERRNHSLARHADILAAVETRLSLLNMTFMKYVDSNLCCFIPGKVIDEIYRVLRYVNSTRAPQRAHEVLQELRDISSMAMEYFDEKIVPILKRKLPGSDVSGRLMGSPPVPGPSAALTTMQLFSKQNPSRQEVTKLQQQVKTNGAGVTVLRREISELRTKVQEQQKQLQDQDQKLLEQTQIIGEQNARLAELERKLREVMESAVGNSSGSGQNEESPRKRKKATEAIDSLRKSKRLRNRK
Substance,binding [1],binding [2],binding [3],binding [4],binding (HA-FLAG-FBXO28)
HSP90AB1 (endogenous) (from UniProt P08238 1-724),binds,binds,binds,binds,–
SKP1 (endogenous) (from UniProt P63208 1-163),–,–,–,binds,binds
STIP1 (endogenous) (from UniProt P31948 1-543),–,–,–,binds,–
TRIM28 (endogenous) (from UniProt Q13263 1-835),–,–,–,binds,–
